Laboratory results published in PubChem BioAssay AID1688 (National Center for Advancing Translational Sciences (NCATS), 2009).
Out of some 220,000 compounds screened, about 2,400 (1.1%) were called active. Inconclusive means that the source gave no clear call. Such entries were picked first, then a sample of the others. Calls come from the whole dose curve; as a rule, active = well fitted inhibition curve with a large enough effect; inconclusive = small, poorly fitted or top-dose-only effect, or effect the other way; inactive = no such curve, though single readings can be large or run the other way. Potencies beside an inconclusive call are fits to weak or partial responses and may not hold up.

experiment: qHTS Multiplex Assay to Identify Dual Action Probes in a Cell Model of Huntington: Aggregate Formation (GFP); conditions: PC12 HttQ103-GFP aggregates, Acumen cytometry, 40 h; activity change, negative = inhibition: at 46.1 µM (top of the series) unless noted; note: nearly all actives have a fitted effect of over 60% in size
Method in brief: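 Inducible Q103 Huntingtin exon 1–GFP PC12 line, 1500 cells/well in phenol red free DMEM with 5% equine and 5% calf serum. Tebufenozide 100 nM induced expression; compounds titrated; aggregates quantified by cytometry.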
% is set by controls: 0 for no effect and ±100 for the full control effect; potency is the fitted concentration of half-maximal effect.

Row | Compound | Potency | activity change, negative = inhibition
1 | CCc1ccc(C2=CC(c3cc(Br)ccc3F)n3ncnc3N2)cc1 (stereo unspecified) | inconclusive: 28.2 µM [inhibitor, single point] | 
2 | O=C(CSc1ncn[nH]1)NC12CC3CC(CC(C3)C1)C2 |  | inactive: 17.2%
3 | O=C(Nc1ccccc1Cl)N1CCN(c2ccc3nnc(-c4ccccc4)n3n2)CC1 | inconclusive: 25.1 µM [inhibitor, single point] | 
4 | O=c1[nH]c(-c2ccc(F)cc2)nc2c1sc(=S)n2-c1ccccc1 | inconclusive: 12.6 µM [inhibitor, partial curve] | 
5 | Fc1ccc(-c2nn(-c3ccccc3)cc2CNCc2ccccc2)cc1 | inconclusive: 22.4 µM [inhibitor, single point] | 
6 | COC(=O)c1ccc(OCC2c3cc(OC)c(OC)cc3CCN2C(=O)C2CC2)cc1 (stereo unspecified) |  | inactive: 12%
7 | CN(CC(=O)Nc1ccc(C#N)cc1)Cc1ccc(Cl)cc1Cl | inconclusive: 3.16 µM [activator, partial curve] | 
8 | c1ccc(C2OC3c4cccc5cccc(c45)C3N2c2ccccc2)cc1 (stereo unspecified) | active: 11.2 µM | 
9 | CCCCCC(=O)N/N=C(\C)c1ccccn1 | inconclusive: 4.47 µM [inhibitor, full curve] | 
10 | Cc1nc2c3cc(F)ccc3n(Cc3ccccc3)c2s1 | inconclusive: 20 µM [activator, single point] | 
11 | CS(=O)(=O)Nc1nc2n(n1)C(c1ccccc1)C=C(c1ccc(Br)cc1)N2 (stereo unspecified) | inconclusive: 2.82 µM [inhibitor, partial curve] | 
12 | C/C(CC(=O)N1CCN(C=O)CC1)=N\NC(=O)c1ccc([N+](=O)[O-])cc1 |  | inactive: -21.5% [at 9.22 µM]
13 | CCOc1ccc(C2c3[nH]c4ccccc4c3CCN2C(=O)Cn2cncn2)cc1 (stereo unspecified) |  | inactive: -3.26% [at 9.22 µM]
14 | CCC1=Nc2cc(C(=O)NCc3ccco3)ccc2Sc2ccc(C)cc21 | inconclusive: 1.41 µM [inhibitor, partial curve] | 
15 | Cc1cc(O)c(C(C[N+](=O)[O-])c2ccc(Cl)cc2Cl)c(=O)o1 (stereo unspecified) | inconclusive: 35.5 µM [inhibitor, single point] | 
16 | COc1ccccc1/C=C/C(=O)NCC(=O)N/N=C/c1cc(Br)ccc1OC | inconclusive: 15.8 µM [inhibitor, single point] | 
17 | S=C(NCCNCc1ccccc1)NC1CCCCC1 | inconclusive: 35.5 µM [inhibitor, single point] | 
18 | Cc1ccnc(N/C=C(\C#N)c2nc(-c3cccc(Br)c3)cs2)c1 |  | inactive: -1.94%
19 | COC(=O)C(CC(C)C)NC(=O)c1ccc([N+](=O)[O-])c(C)c1 (stereo unspecified) |  | inactive: -4.27%
20 | O=C(O)CCC(=O)N1CCN(c2nc(-c3ccccc3Cl)c3cc(Br)ccc3n2)CC1 | inconclusive: 35.5 µM [inhibitor, single point] | 
21 | Cc1ccc(S(=O)(=O)/C(C#N)=C/c2c(N3CCC(C(N)=O)CC3)nc3ccccn3c2=O)cc1 |  | inactive: 3.89%
22 | O=C(c1cc2c(s1)CCCC2)n1cccn1 | inconclusive: 0.1 µM [activator, partial curve, poor fit] | 
23 | Cc1ccc(C2CC2c2n[nH]c(=S)n2-c2ccc(C)cc2)cc1 (stereo unspecified) |  | inactive: 21.3%

Row | Compound | Potency | activity change, negative = inhibition
24 | CCNC(=O)COc1ccc(S(=O)(=O)Nc2ccccc2)cc1 | inconclusive: 0.631 µM [inhibitor, full curve, poor fit] | 
25 | Cc1ccc(N2CCN(c3ccc(C)cc3)C2c2cccnc2)cc1 | inconclusive: 31.6 µM [inhibitor, single point] | 
26 | N#Cc1c(-c2cccs2)nc(SCC(=O)c2cccs2)[nH]c1=O |  | inactive: 12.9%
27 | O=S(=O)(Nc1cccc(-c2nc3cccnc3s2)c1)c1ccc2c(c1)OCCO2 | inconclusive: 22.4 µM [inhibitor, single point] | 
28 | CCc1ccc(NC(=O)CC2C(=O)NCCN2C(=S)Nc2ccccc2)cc1 (stereo unspecified) | inconclusive: 10 µM [activator, partial curve] | 
29 | Cc1ccc(S(=O)(=O)CCc2nnc(NC(=O)c3cccs3)s2)cc1 | inconclusive: 22.4 µM [inhibitor, single point] | 
30 | Cc1ccc(-c2nc3ccccc3[nH]2)cc1NC(=O)/C=C/c1ccco1 | inconclusive: 14.1 µM [activator, single point] | 
31 | Cc1ccc(C)c2[nH]c(=O)c(CN(CC3CCCO3)C(=S)NCc3ccco3)cc12 (stereo unspecified) |  | inactive: -6.19% [at 9.22 µM]
32 | Cc1ccc(-c2ccc(C(=O)Nc3cccc(F)c3)o2)c2ccccc12 | active: 22.4 µM | 
33 | S=C(NCc1ccc2[nH]c3c(c2c1)CCCC3)Nc1ccccc1 | inconclusive: 11.2 µM [activator, partial curve] | 
34 | O=C(NNC1=C(C(=O)C(F)(F)F)CCC1)c1ccccc1Cl | inconclusive: 17.8 µM [inhibitor, single point] | 
35 | CC1CCc2nc(N)c(C#N)c(-c3cccnc3)c2C1 (stereo unspecified) | active: 2 µM | 
36 | CN(C)c1nc(Nc2ccccc2)nc(N(C)C)n1 |  | inactive: -32.3%
37 | COC(=O)c1[nH]c2cc(OC)c(OC)cc2c1NC(=O)CN1CCN(Cc2ccccc2)CC1 | inconclusive: 6.31 µM [activator, partial curve] | 
38 | O=C1c2cccc3c([N+](=O)[O-])ccc(c23)C(=O)N1Cc1cccnc1 | active: 35.5 µM | 
39 | CCOCC(=O)Nc1cc([N+](=O)[O-])ccc1OC |  | inactive: 0.769%
40 | O=C(CCC(=O)N(CC(=O)NC1CCCC1)Cc1ccc2c(c1)OCO2)Nc1nccs1 |  | inactive: -16.5%
41 | CC(=O)N(Cc1ccc(F)cc1)C1=C(NCc2ccccc2)C(=O)c2ccccc2C1=O | active: 8.91 µM | 
42 | Cc1ccccc1OC(=O)n1c(=S)oc2cc(Cl)ccc21 | inconclusive: 11.2 µM [inhibitor, partial curve] | 
43 | CC(C)CCOC(=O)/C(=C/c1ccco1)NC(=O)/C=C/c1ccccc1 | inconclusive: 35.5 µM [inhibitor, single point] | 
44 | CC1CC(NC(=O)Cc2ccc(Br)cc2)CC(C)(C)C1 (stereo unspecified) | inconclusive: 8.91 µM [inhibitor, partial curve, poor fit] | 
45 | O=C(CSc1nc2ccccc2c(=O)[nH]1)c1ccc(O)cc1O |  | inactive: -25.8%
46 | c1ccc(Cc2nnc(Sc3ccccc3)c3ccccc23)cc1 | inconclusive: 35.5 µM [inhibitor, single point] | 

Full records from above:
O=C1c2cccc3c([N+](=O)[O-])ccc(c23)C(=O)N1Cc1cccnc1 in the list: Potency: active: 35.5 µM
CCNC(=O)COc1ccc(S(=O)(=O)Nc2ccccc2)cc1 in the list: Potency: inconclusive: 0.631 µM [inhibitor, full curve, poor fit]
